In PubChem BioAssay AID2685 (National Center for Advancing Translational Sciences (NCATS), 2010):
Some of the results follow. Further columns of the screen follow, without active or inactive calls. Compounds called inactive in the main read-out are mostly missing here. Potencies come from curve fits of mixed quality, noted in brackets.

Assay: qHTS Assay for Lipid Storage Modulators in Drosophila S3 Cells;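 on cell number change: cells counted by Cell Tracker Red CMTPX staining in the red channel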
Details: BODIPY lipid droplet fluorescence, 18-24 h; for cell number change: measured here: cell count max response, cells fed with added oleic acid
Procedure, shortened: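 Drosophila S3 cells got compounds at several concentrations plus oleic acid (400 uM solution). Laser-scanning cytometry with 488 nm excitation read lipid droplets at 500-530 nm and cells at 575-640 nm. Percent activity was relative to 20 uM Triacsin C.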

[1] = measured here: cell number channel AC50, cells fed with added oleic acid
[2] = measured here: lipid fluorescence (Fed channel) AC50, cells fed with added oleic acid

SMILES | cell number change | AC50 [1] | AC50 [2]
Cc1noc(C)c1COc1cccc(C(=O)NCc2cccc(Cl)c2)c1 | -6.56% | – | –
Cc1nn(-c2cccc(Cl)c2)c2nc(-c3ccncc3)cc(C(=O)N3CCOCC3)c12 | 36.1% | 32.6 µM [rising, single point] | 0.116 µM [rising, full curve, poor fit]
Cc1ccc2c(c1)NC(=O)C(CC(=O)NCCCN1CCc3ccccc3C1)O2 (stereo not given) | 19.2% | – | 1.3 µM [rising, full curve, poor fit]
Clc1ccc2nc(-c3cccc(SC4CCCCC4)c3)c(NCc3ccccc3)n2c1 | 17% | – | –
CCn1c(C)nc2cc(-c3nnc(-c4c(-c5ccccc5)noc4C)o3)ccc21 | -35.5% | 10.3 µM [falling, partial curve, poor fit] | 14.6 µM [falling, partial curve]
N#C/C(=C/c1ccncc1)c1nc2ccccc2s1 | -39.9% | 18.4 µM [falling, single point] | 23.1 µM [falling, single point]
CCN(CC)CCCN1C(=O)C(O)=C(C(=O)c2sc(C)nc2C)C1c1ccco1 (stereo not given) | 9.34% | – | 0.0259 µM [falling, full curve]
Cc1cc(O)c(/C=N/Nc2ccc(Cl)cc2)c(=O)o1 | -1.86% | – | 2.31 µM [falling, partial curve, poor fit]
COc1ccc(N2CCN(C(=O)CN(c3ccccc3)S(C)(=O)=O)CC2)cc1 | -8.93% | – | –
O=c1[nH]c(SCc2ccccc2)nc2c1sc1ccccc12 | 11.3% | – | 3.66 µM [rising, single point]
Cc1cc(=O)n(CNC(=O)c2ccccc2)c(=S)[nH]1 | 0.441% | – | 0.58 µM [falling, single point]
CSc1cccc(NC(=O)CN(C)S(=O)(=O)c2ccc(C)cc2)c1 | -10.9% | – | –
Cc1ccc(NC(=O)c2ccc(NCC3CCCO3)c([N+](=O)[O-])c2)cc1Cl (stereo not given) | 3.97% | – | –
Cc1ccc([N+](=O)[O-])cc1N=Nc1c(-c2ccc([N+](=O)[O-])cc2)[nH]n(C(N)=S)c1=O | -16.8% | – | 0.651 µM [falling, full curve, poor fit]
Cc1cc(C)cc(C(=O)NC(=S)Nc2ccc(Cc3ccncc3)cc2)c1 | -0.321% | – | 20.6 µM [rising, single point]
Cc1ccnn2c(-c3ccccc3)c3c(=O)n(C)c(=O)n(C)c3c12 | 4.97% | – | 0.326 µM [rising, partial curve]
COC(c1ccccc1)c1nnc(CCC(=O)NCc2cccc(-n3cccn3)c2)o1 (stereo not given) | -52.3% | 8.2 µM [falling, partial curve] | 6.51 µM [falling, partial curve]
Brc1ccc(N=Cc2ccccn2)cc1 | -3.62% | – | 20.6 µM [falling, single point]
CN1C2CCC1/C(=C/c1cccn1C)C(=O)/C2=C\c1cccn1C | -49.1% | – | 29.1 µM [rising, single point]
O=C(Nc1cc2c3c(c1)CC(=O)N3CCC2)C1CCCCC1 | 38.9% | 1.64 µM [rising, partial curve] | 6.51 µM [rising, partial curve]

Retrieved one by one from the entries so far (two):
SMILES | cell number change | AC50 [1] | AC50 [2]
COC(c1ccccc1)c1nnc(CCC(=O)NCc2cccc(-n3cccn3)c2)o1 (stereo not given) | -52.3% | 8.2 µM [falling, partial curve] | 6.51 µM [falling, partial curve]
Cc1cc(O)c(/C=N/Nc2ccc(Cl)cc2)c(=O)o1 | -1.86% | – | 2.31 µM [falling, partial curve, poor fit]

Next entries:

SMILES | cell number change | AC50 [1] | AC50 [2]
CC(C)Sc1nc(-c2ccccc2)cc(=O)[nH]1 | 16.7% | – | –
Cc1ccc(S(=O)(=O)NCCC(=O)OCC(=O)NCCc2ccccc2)cc1C | -18.5% | 0.0058 µM [falling, full curve, poor fit] | –
CCNS(=O)(=O)c1ccc(CCC(=O)Nc2ccccc2C(=O)OC)cc1 | 18.9% | – | 7.31 µM [rising, partial curve, poor fit]
CCc1ccccc1NC(=O)CN1C(=O)C2CCCN2c2ncc(Cl)cc21 (stereo not given) | – | 0.231 µM [rising, full curve, poor fit] | 0.259 µM [rising, partial curve, poor fit]
CCOC(=O)c1cc(S(=O)(=O)NCC2CCN(Cc3cccc(C)c3)CC2)cn1C | 91.4% | 20.6 µM [rising, partial curve] | 29.1 µM [rising, single point]
Cc1cccc(NC(=O)CSc2nnnn2C2CCCC2)c1 | 17.1% | – | –
O=C(CSc1nnc(-c2ccco2)o1)c1ccccc1Cl | -54.6% | – | –
COc1ccccc1NC(=O)c1ccc2nsnc2c1 | – | – | 8.91 µM [falling, partial curve]
Cn1cnnc1-c1cccc(NC(=O)c2cc(F)c(F)cc2Cl)c1 | 145% | 29.1 µM [rising, single point] | 29.1 µM [rising, partial curve]
COc1ccccc1NC(=O)N(Cc1cccs1)Cc1cc2cc3c(cc2[nH]c1=O)OCO3 | 21.3% | – | 0.0731 µM [rising, full curve, poor fit]
C=CCN(Cc1nc(-c2ccccc2)no1)C(=O)c1ccc2c(c1)OCO2 | 10.4% | – | –
CCN(CC)c1cccc(OCC(=O)N2c3ccccc3CC2C)c1 (stereo not given) | -3.76% | – | 6.51 µM [falling, single point]
Cc1cc(C)c(OCCCCn2cnc3ccccc3c2=O)c(C)c1 | -19% | – | 0.58 µM [falling, full curve]
Cn1c(=O)c2c(nc(NCC3CCCO3)n2C)n(C)c1=O (stereo not given) | -7.71% | – | 5.8 µM [falling, full curve, poor fit]
Cc1cc(=O)oc2cc(OCC(=O)N3CCN(C(=O)C4COc5ccccc5O4)CC3)ccc12 (stereo not given) | -15.3% | – | 29.1 µM [falling, single point]
C=C(C)CNC(=S)NNC(=O)c1cc(C)oc1C | 15.1% | – | 11.6 µM [rising, partial curve]
Oc1ccccc1-c1nc(N2CCN(Cc3ccccc3)CC2)c2ccccc2n1 | 1.62% | – | 16.4 µM [rising, partial curve, poor fit]
COc1ccc(/C=C/c2nc(-c3ccccc3O)n[nH]2)cc1OC | -17.9% | – | 23.1 µM [falling, single point]
COC(=O)c1ccc(/C=C2/SC(=S)N(CCCC(=O)Nc3ccc(O)cc3)C2=O)cc1 | 12.4% | – | 5.17 µM [rising, single point]
